Values from PubChem BioAssay AID1224830 (NIAID, 2016).
Here is one part, drawn at random, of about 18,000 deposited reagents. About 2,900 of all reagents (16%) were called active. 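Calls are made per well; low scores hint the gene aids the LPS response, high scores that it dampens it.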 Entries without a mark were called inactive. Repeated entries: four replicate wells of each siRNA pool.

Assay: 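Genes whose knock-down alters the TNF-alpha reporter response to LPS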 (primary screen)
Cells: human THP-1 monocytic leukaemia cells, TNF dual-luciferase reporter clone, PMA-differentiated to macrophage-like cells
Reagent: siRNA pool against human genes, 50 nM
Time to read-out: LPS for 4 h, given about 3 days after siRNA transfection
Challenge: bacterial LPS (TLR4 ligand), 10 ng/ml
Detection: 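TNF firefly reporter luminescence divided by renilla, normalised to the plate median, then turned into a robust z-score for each replicate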
Reading the numbers: TNF reporter robust z-score: higher = stronger TNF reporter response to LPS
Rule for the call: 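Each well counts as active if its z-score is over 2.8 or under -1.5; controls are left without a call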

Against ZP3 (zona pellucida glycoprotein 3), the entry reads TNF reporter robust z-score -0.08.
For ZP3 (zona pellucida glycoprotein 3), the entry reads TNF reporter robust z-score -0.81.
ZP3 (zona pellucida glycoprotein 3) gave TNF reporter robust z-score -1.68 (active).
Knock-down of ZP3 (zona pellucida glycoprotein 3) came out at: TNF reporter robust z-score -1.6 (active).
After knock-down of CFAP410 (cilia and flagella associated protein 410) the results were TNF reporter robust z-score -1.61 (active).
Depletion of CFAP410 (cilia and flagella associated protein 410) resulted in: TNF reporter robust z-score -1.51 (active).
Against CFAP410 (cilia and flagella associated protein 410) the deposit lists TNF reporter robust z-score -0.52.
With knock-down of CFAP410 (cilia and flagella associated protein 410), the record shows TNF reporter robust z-score -1.06.
KRT71 (keratin 71) gave TNF reporter robust z-score 2.16.
After knock-down of KRT71 (keratin 71) the results were TNF reporter robust z-score 1.4.
KRT71 (keratin 71) showed TNF reporter robust z-score 1.49.
For KRT71 (keratin 71), the entry reads TNF reporter robust z-score 1.61.
ZNF81 (zinc finger protein 81) gave TNF reporter robust z-score 2.09.
ZNF81 (zinc finger protein 81) gave TNF reporter robust z-score 0.36.
Against ZNF81 (zinc finger protein 81), the values are TNF reporter robust z-score -1.51 (active).
Depletion of ZNF81 (zinc finger protein 81) resulted in: TNF reporter robust z-score 0.
After knock-down of CEP68 (centrosomal protein 68) the results were TNF reporter robust z-score -0.96.
After knock-down of CEP68 (centrosomal protein 68), the screen gave TNF reporter robust z-score -0.78.
After knock-down of CEP68 (centrosomal protein 68), the screen gave TNF reporter robust z-score -0.88.
For CEP68 (centrosomal protein 68) the deposit lists TNF reporter robust z-score -0.74.
TMEM268 (transmembrane protein 268) scored TNF reporter robust z-score 0.64.
With knock-down of TMEM268 (transmembrane protein 268), the screen gave TNF reporter robust z-score 0.61.
For TMEM268 (transmembrane protein 268), the entry reads TNF reporter robust z-score -0.48.
TMEM268 (transmembrane protein 268) scored TNF reporter robust z-score 0.39.

Records above called active, once more:
ZP3 (zona pellucida glycoprotein 3) — TNF reporter robust z-score: -1.68 (active)
ZP3 (zona pellucida glycoprotein 3) — TNF reporter robust z-score: -1.6 (active)
CFAP410 (cilia and flagella associated protein 410) — TNF reporter robust z-score: -1.61 (active)
CFAP410 (cilia and flagella associated protein 410) — TNF reporter robust z-score: -1.51 (active)
ZNF81 (zinc finger protein 81) — TNF reporter robust z-score: -1.51 (active)

The list goes on.
PARP8 (poly(ADP-ribose) polymerase family member 8) showed TNF reporter robust z-score 0.05.
Knock-down of PARP8 (poly(ADP-ribose) polymerase family member 8) gave: TNF reporter robust z-score 0.53.
Against PARP8 (poly(ADP-ribose) polymerase family member 8), the entry reads TNF reporter robust z-score 0.84.
Silencing of PARP8 (poly(ADP-ribose) polymerase family member 8) came out at: TNF reporter robust z-score 1.5.
Against STEAP2 (STEAP2 metalloreductase) the deposit lists TNF reporter robust z-score 1.09.
For STEAP2 (STEAP2 metalloreductase) the deposit lists TNF reporter robust z-score 1.69.
After knock-down of STEAP2 (STEAP2 metalloreductase), the record shows TNF reporter robust z-score 1.32.
After knock-down of STEAP2 (STEAP2 metalloreductase), the screen gave TNF reporter robust z-score 1.43.
Depletion of PPP3CA (protein phosphatase 3 catalytic subunit alpha) gave: TNF reporter robust z-score 0.12.
PPP3CA (protein phosphatase 3 catalytic subunit alpha) showed TNF reporter robust z-score 0.1.
With knock-down of PPP3CA (protein phosphatase 3 catalytic subunit alpha), the record shows TNF reporter robust z-score -0.35.
After knock-down of PPP3CA (protein phosphatase 3 catalytic subunit alpha), the record shows TNF reporter robust z-score -0.43.
EXOSC7 (exosome component 7) showed TNF reporter robust z-score 0.53.
Knock-down of EXOSC7 (exosome component 7) came out at: TNF reporter robust z-score 1.15.
Knock-down of EXOSC7 (exosome component 7) gave: TNF reporter robust z-score 1.02.
EXOSC7 (exosome component 7) showed TNF reporter robust z-score 0.98.
For INO80D (INO80 complex subunit D), the entry reads TNF reporter robust z-score 0.72.
Against INO80D (INO80 complex subunit D), the values are TNF reporter robust z-score 0.4.
Against INO80D (INO80 complex subunit D), the values are TNF reporter robust z-score -0.49.
Knock-down of INO80D (INO80 complex subunit D) gave: TNF reporter robust z-score 0.01.
With knock-down of CACNA2D2 the results were TNF reporter robust z-score -0.44.
For CACNA2D2, the entry reads TNF reporter robust z-score -0.66.
Against CACNA2D2, the values are TNF reporter robust z-score -1.
Against CACNA2D2, the values are TNF reporter robust z-score 0.14.
